# Melanoma cell counts after drug treatment

First drug in all entries: BMS-536924, 200 nM, Cc1cc(N2CCOCC2)cc2[nH]c(-c3c(NC[C@@H](O)c4cccc(Cl)c4)cc[nH]c3=O)nc12

Drug key:
perifosine: CCCCCCCCCCCCCCCCCCOP(=O)([O-])OC1CC[N+](C)(C)CC1 at 400 nM
temozolomide: Cn1nnc2c(C(N)=O)ncn2c1=O at 2000 nM
darinaparsin: C[As](C)SC[C@H](NC(=O)CC[C@H](N)C(=O)O)C(=O)NCC(=O)O at 400 nM
stibogluconate: O=C(O)[C@@H]1[O][Sb](=[O])([O][Sb]2(=[O])[O][C@H]([C@H](O)CO)[C@H](O)[C@H](C(=O)O)[O]2)[O][C@H]([C@H](O)CO)[C@@H]1O (stereo partly drawn) at 2000 nM
lestaurtinib: C[C@]12O[C@H](C[C@]1(O)CO)n1c3ccccc3c3c4c(c5c6ccccc6n2c5c31)CNC4=O at 4 nM
CHIR-265: Cn1c(Nc2ccc(C(F)(F)F)cc2)nc2cc(Oc3ccnc(-c4ncc(C(F)(F)F)[nH]4)c3)ccc21 at 80 nM
ruxolitinib: N#CC[C@H](C1CCCC1)n1cc(-c2ncnc3[nH]ccc23)cn1 at 1000 nM
enzastaurin: Cn1cc(C2=C(c3cn(C4CCN(Cc5ccccn5)CC4)c4ccccc34)C(=O)NC2=O)c2ccccc21 at 800 nM
vismodegib: CS(=O)(=O)c1ccc(C(=O)Nc2ccc(Cl)c(-c3ccccn3)c2)c(Cl)c1 at 1000 nM
erlotinib: C#Cc1cccc(Nc2ncnc3cc(OCCOC)c(OCCOC)cc23)c1 at 800 nM
lapatinib: CS(=O)(=O)CCNCc1ccc(-c2ccc3ncnc(Nc4ccc(OCc5cccc(F)c5)c(Cl)c4)c3c2)o1 at 800 nM
ZM336372: Cc1ccc(NC(=O)c2cccc(N(C)C)c2)cc1NC(=O)c1ccc(O)cc1 at 2000 nM
tozasertib: Cc1cc(Nc2cc(N3CCN(C)CC3)nc(Sc3ccc(NC(=O)C4CC4)cc3)n2)n[nH]1 at 6 nM
RKI-983: C[C@@H](N)c1ccc(C(=O)Nc2ccnc3[nH]ccc23)cc1 at 400 nM
PLX4720: CCCS(=O)(=O)Nc1ccc(F)c(C(=O)c2c[nH]c3ncc(Cl)cc23)c1F at 80 nM
PF-562271: CN(c1ncccc1CNc1nc(Nc2ccc3c(c2)CC(=O)N3)ncc1C(F)(F)F)S(C)(=O)=O at 80 nM
indole-3-carbinol: OCc1c[nH]c2ccccc12 at 800 nM
crizotinib: C[C@@H](Oc1cc(-c2cnn(C3CCNCC3)c2)cnc1N)c1c(Cl)ccc(F)c1Cl at 200 nM
FK866: O=C(/C=C/c1cccnc1)NCCCCC1CCN(C(=O)c2ccccc2)CC1 at 10 nM
bexarotene: C=C(c1ccc(C(=O)O)cc1)c1cc2c(cc1C)C(C)(C)CCC2(C)C at 2000 nM
SU6656: CN(C)S(=O)(=O)c1ccc2c(c1)/C(=C/c1cc3c([nH]1)CCCC3)C(=O)N2 at 400 nM
MK-2206: NC1(c2ccc(-c3nc4ccn5c(=O)[nH]nc5c4cc3-c3ccccc3)cc2)CCC1 at 400 nM
IMD-0354: O=C(Nc1cc(C(F)(F)F)cc(C(F)(F)F)c1)c1cc(Cl)ccc1O at 16 nM
sorafenib: CNC(=O)c1cc(Oc2ccc(NC(=O)Nc3ccc(Cl)c(C(F)(F)F)c3)cc2)ccn1 at 400 nM
lenalidomide: Nc1cccc2c1CN(C1CCC(=O)NC1=O)C2=O (stereo not drawn) at 1000 nM

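Human melanoma cell lines in 1,536-well plates were treated with two drugs together for 72 h, then fixed, stained and imaged. Each value is the count of nuclei relative to DMSO-treated wells, in %, so that 100 equals the control. Concentrations were fixed for each drug; these are the lower of two levels, a fifth of the higher. The file gives one value for each pair and line, without errors, so small differences may be noise.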
Only some of the drugs and lines screened are listed, without regard to their results.

Partner	A375	A101D	C32	A2058
IMD-0354	100	106	108	82.0
lestaurtinib	76.4	110	95.0	105
darinaparsin	73.1	101	94.8	99.8
MK-2206	69.1	73.8	91.1	72.6
temozolomide	76.6	99.0	90.8	71.8
ruxolitinib	93.4	107	91.9	76.8
lapatinib	92.7	83.5	86.1	97.1
vismodegib	80.5	107	108	93.6
tozasertib	103	94.6	88.6	91.6
crizotinib	88.1	95.1	91.0	98.9
perifosine	56.0	94.8	107	96.4
indole-3-carbinol	81.5	119	104	95.4
ZM336372	84.4	90.5	102	86.5
FK866	79.0	93.4	118	105
stibogluconate	83.7	101	108	113
RKI-983	80.1	87.8	78.7	85.3
PF-562271	68.6	93.1	98.8	93.7
enzastaurin	85.4	110	107	104
CHIR-265	56.6	63.3	91.2	88.1
bexarotene	90.3	96.8	98.5	111
erlotinib	68.6	84.9	88.7	98.1
PLX4720	62.6	75.5	62.7	92.6
SU6656	78.6	77.5	77.9	102
lenalidomide	78.3	99.5	92.1	91.2
sorafenib	80.9	95.4	90.3	94.0

3 of the entries, repeated:

Partner,A375,A101D,C32,A2058
temozolomide,76.6,99.0,90.8,71.8
lapatinib,92.7,83.5,86.1,97.1
lenalidomide,78.3,99.5,92.1,91.2

Data from the primary screen of doi:10.1371/journal.pone.0140310, rounded.